US20210221784A1, “COMPOUNDS AND COMPOSITIONS FOR THE TREATMENT OF PAIN” (Université de Strasbourg, priority 2018, published 2021)
The name of at least one read-out is uncertain.

Assay: Bioavailability (statement only)

SMILES: Cc1ccccc1-c1ccc(N)nc1N [Compound 1c, 3-(o-tolyl)pyridine-2,6-diamine]
- bioavailability compared with compound 1j: better bioavailability
